Source: patent US20070078058A1, “Use of MCPP to inhibit tuber sprouting” (ACETO AGRICULTURAL CHEMICALS CORP., priority 2005, published 2007)

Test: Concentration analysis: amounts recovered on the whole potato
Conditions: approximately four months later
From the text: Much better results were obtained with the spray applications compared to the thermal fog applications of MCPP, believed to be due to the fact that we established a higher concentration on the tuber via spray.
For example, for spray and thermal fog application, amounts recovered on the whole potato approximately four months later were as follows: MCPP10 ppm applied via thermal fog=0.038 ppm MCPP10 ppm applied via liquid spray=6.3 ppm

## Cc1cc(Cl)ccc1OC(C)C(=O)O (centres unmarked) [MCPP, 2-(4-Chloro-2-methylphenoxy)propanoic acid]
10 ppm applied via liquid spray
  amount recovered on the whole potato: 6.3 ppm
10 ppm applied via thermal fog
  amount recovered on the whole potato: 0.038 ppm
